Calls as published in the ROBIN set (doi:10.1002/anie.202211358).

Targets, with sequences 5′ to 3′:
SAM-II: SAM-II riboswitch RNA pseudoknot, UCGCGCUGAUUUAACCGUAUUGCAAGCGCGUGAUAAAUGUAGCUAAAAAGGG. About 200 hits among about 21,000 compounds.
TPP: TPP riboswitch RNA three-way junction, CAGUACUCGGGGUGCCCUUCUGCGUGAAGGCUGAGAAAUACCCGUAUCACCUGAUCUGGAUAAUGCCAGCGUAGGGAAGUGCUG. About 160 hits among about 24,000 compounds.
PreQ1: PreQ1 riboswitch RNA pseudoknot, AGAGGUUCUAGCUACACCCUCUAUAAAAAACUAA. From B. subtilis. About 170 hits among about 24,000 compounds.

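Compounds were printed on reactive glass slides in duplicate spots, a dye-labelled oligonucleotide was laid over them, and the fluorescence left after washing was read. For the PreQ1, TPP and SAM-II riboswitches the laboratory earlier reported (doi:10.1038/s41467-019-09493-3) 1 µM RNA, 2 h, and a rule that included a mean Z-score above 3 (spot signal-to-noise against the whole library), a score well above that on a control array, and duplicate spots agreeing (coefficient of variation under 100). The data file gives only the calls; its cut-offs may differ, and compounds hitting several targets are kept. These are primary screening calls, not affinities; a compound without a hit may have attached poorly or may still bind in solution.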 A compound is marked hit if it was called a hit and no hit if it was screened but was not. This is an unselected part of the compounds tested. A target missing from an entry has no call listed here.

* Cc1cn([C@@H]2C[C@@H](O)[C@H](CO)O2)c(=O)[nH]c1=O : SAM-II: no hit; TPP: no hit; PreQ1: no hit
* Cc1cccc(Nc2nc(-c3c(C)nc4ccccn34)cs2)c1 : SAM-II: no hit; TPP: no hit; PreQ1: no hit
* CC(Sc1nc(=O)cc(N)n1CCc1ccccc1)C(=O)Nc1ccccc1Cl (stereo not given) : SAM-II: no hit; TPP: no hit; PreQ1: no hit
* CSc1nc(C)c(Br)c(N2CC2)n1 : SAM-II: hit; TPP: no hit; PreQ1: no hit
* NC1=C(c2nc3ccccc3s2)C(=O)CN1c1ccccc1F : SAM-II: no hit; TPP: no hit; PreQ1: no hit
* Nc1c2c(nc3ccccc13)N(Cc1ccccc1)CC2 : SAM-II: no hit; TPP: no hit; PreQ1: no hit
* CC(=O)c1ccc(OCC(O)CN2CCN(c3cccc(Cl)c3)CC2)cc1.Cl.Cl (stereo not given) : SAM-II: no hit; TPP: no hit; PreQ1: no hit
* CNCC(=O)NCC(c1sccc1C)N(C)C (stereo not given) : SAM-II: no hit; TPP: no hit; PreQ1: no hit
* Cc1c(Cl)cccc1-c1ccc(CNCCO)o1 : TPP: no hit; PreQ1: no hit
* CSC1=NC=C(C#N)C2=NC(c3ccc(Cl)cc3)NN12 (stereo not given) : SAM-II: no hit; TPP: no hit; PreQ1: no hit
* Cc1c(C(C)NC(=O)CCc2n[nH]c(N)n2)cnn1-c1ccccn1 (stereo not given) : SAM-II: no hit; TPP: no hit; PreQ1: no hit
* CCCC[C@H](N)C(=O)N1CCC2(CC1)CC(=O)N(CC(C)C)C2 : SAM-II: no hit; TPP: no hit; PreQ1: no hit
* O=C(O)c1cc(NCc2ccccc2F)ccc1N1CCOCC1 : SAM-II: no hit; TPP: no hit; PreQ1: no hit
* Cc1cc(NC(=O)CN2CCCC(Nc3ccc(C(C)C)cc3)C2)no1 (stereo not given) : SAM-II: no hit; TPP: no hit; PreQ1: no hit
* O=C(NCC(c1ccccc1)c1ccccc1)c1nn(-c2ccc(Cl)cc2)nc1CO : TPP: no hit; PreQ1: no hit
* FC(F)(F)c1ccc(Nc2nc(-c3ccccn3)cs2)cc1 : SAM-II: no hit; TPP: no hit; PreQ1: no hit
* COc1cccc(CNc2ncc(-c3ccccc3)n2C)c1 : SAM-II: no hit; TPP: no hit; PreQ1: no hit
* COc1ccc(-c2nn3c(NC4CCCC4)cc(C)nc3c2C)cc1OC : TPP: no hit; PreQ1: no hit
* Cc1ccccc1OCC(O)Cn1c(C(F)(F)F)nc2ccccc21 (stereo not given) : SAM-II: no hit; TPP: no hit; PreQ1: no hit
* CC(C)NCc1ccc(-c2ccc(Br)cc2)o1 : TPP: no hit; PreQ1: no hit
* CC(C)NC(=O)Nc1cccc(Cl)c1 : SAM-II: no hit; TPP: no hit; PreQ1: no hit
* Oc1c(/N=N/c2nnn[nH]2)ccc2ccccc12 : SAM-II: no hit; TPP: no hit; PreQ1: no hit
* NC1CCCCN(C(=O)CCc2ccc(-c3cccs3)o2)C1 (stereo not given) : SAM-II: no hit; TPP: no hit; PreQ1: no hit
* N#Cc1c(NCc2ccccc2)sc(C(=O)c2ccc(Cl)s2)c1N : SAM-II: no hit; TPP: no hit; PreQ1: no hit
* Cc1ccc(NC(=O)NNC(=O)CSC2CCc3ccccc32)c(C)c1 (stereo not given) : SAM-II: no hit; TPP: no hit; PreQ1: no hit
* COc1cc(C2Nc3ccc(C)cc3C3OCCCC23)cc(OC)c1OC (stereo not given) : SAM-II: no hit; TPP: no hit; PreQ1: no hit
* O=[N+]([O-])c1cccc(/C=C/c2ccccn2)c1 : SAM-II: no hit; TPP: no hit; PreQ1: no hit
* Cc1nc(CCN)cc(N(C)Cc2csc(C(C)C)n2)n1 : SAM-II: no hit; TPP: no hit; PreQ1: no hit
* Cc1cccc(-c2n[nH]cc2C(=O)N2C[C@H](c3ccccc3)[C@@H](N)C2)c1 : SAM-II: no hit; TPP: no hit; PreQ1: no hit
* COc1ccc(C2C=C(c3ccc(C)cc3)Nc3nc(CCCO)nn32)cc1 (stereo not given) : SAM-II: no hit; TPP: no hit; PreQ1: no hit
* CCN1CCN(C(=O)N[C@H](C(=O)N[C@@H]2C(=O)N3C(C(=O)O)=C(CSc4nnnn4C)CS[C@@H]23)c2ccc(O)cc2)C(=O)C1=O.O.O : SAM-II: no hit; TPP: no hit; PreQ1: no hit
* CC(S)C(=O)NCC(=O)O (stereo not given) : SAM-II: no hit; TPP: no hit; PreQ1: no hit
* CNCCN1C(=O)CC[C@H]2CN(c3nccc(C(F)(F)F)n3)CC[C@H]21 : SAM-II: no hit; TPP: no hit; PreQ1: no hit
* N#CC1=C(N)N(c2ccccc2)C2=C(C(=O)CCC2)C1c1ccc(O)cc1 (stereo not given) : SAM-II: no hit; TPP: no hit; PreQ1: no hit
* CCN(C(=O)c1cccc(F)c1F)[C@@H]1CCN(c2ccnc(N)n2)C[C@H]1O : SAM-II: no hit; TPP: no hit; PreQ1: no hit
* NCCN1C[C@]23CC[C@H](O2)[C@H](C(=O)N2CCC(O)(CO)CC2)[C@@H]3C1=O : SAM-II: no hit; TPP: no hit; PreQ1: no hit

Some entries from above, unchanged:

| structure | SAM-II | TPP | PreQ1 |
|---|---|---|---|
| `CNCCN1C(=O)CC[C@H]2CN(c3nccc(C(F)(F)F)n3)CC[C@H]21` | no hit | no hit | no hit |
| `NC1=C(c2nc3ccccc3s2)C(=O)CN1c1ccccc1F` | no hit | no hit | no hit |